Assay results published in patent US20240252641A1.
Results are given in words; binding and its absence hold for the method and conditions named. Some binding calls cover weakened binding; strength is not graded here.

Biological target: T1, human CD70, recombinant, N-terminally biotinylated (residues 39-193) (human) (UniProt P32970)
T1 sequence (N-terminal biotin, looked up): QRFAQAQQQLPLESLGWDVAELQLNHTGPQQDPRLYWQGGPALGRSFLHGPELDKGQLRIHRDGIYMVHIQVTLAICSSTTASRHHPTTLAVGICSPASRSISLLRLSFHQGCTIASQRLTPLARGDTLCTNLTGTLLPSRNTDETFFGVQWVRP
Experiment: Octet titration, biotinylated CD70 on SA biosensors

B1: 1-TC4-I-C10 (scFv)
scFv: EVQLVQSGAEVKKPGESLKISCKGSGYSFTSYWIGWVRQMPGKGLEWMGIIYPGDSDTRYSPSFQGQVTISADKSISTAYLQWSSLKASDTAMYYCAISRTESYVMDVWGQGTTVTVSSGGSGGSGGSGGSQSALTQPRSVSGSPGQSVTISCTGTSSDVGGYNYVSWYQQHPGKAPKLMIYDVTNRPSGVPDRFSASKSDNTATLTVSGVQAEDEADYYCSSYAGSHELFGGGTKLTVL
With B1 the binding was “binds”.
